Results taken from the supplement of paper PMC10849652.
The list shows a part of the results.

By UniProt entry, the sequences of proteins in these tests, tags left out. Where a name states a change or a piece, a line headed by the entry shows the natural chain unless it says otherwise.
UniProt Q9NXA8: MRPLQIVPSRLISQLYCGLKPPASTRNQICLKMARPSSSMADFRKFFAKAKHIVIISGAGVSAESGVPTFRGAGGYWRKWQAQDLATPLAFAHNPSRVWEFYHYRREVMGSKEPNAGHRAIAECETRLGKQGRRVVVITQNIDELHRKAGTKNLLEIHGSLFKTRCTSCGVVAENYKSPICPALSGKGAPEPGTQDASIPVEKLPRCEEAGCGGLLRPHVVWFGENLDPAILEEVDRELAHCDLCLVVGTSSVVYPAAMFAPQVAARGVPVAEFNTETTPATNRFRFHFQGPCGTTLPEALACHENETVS
UniProt P58004: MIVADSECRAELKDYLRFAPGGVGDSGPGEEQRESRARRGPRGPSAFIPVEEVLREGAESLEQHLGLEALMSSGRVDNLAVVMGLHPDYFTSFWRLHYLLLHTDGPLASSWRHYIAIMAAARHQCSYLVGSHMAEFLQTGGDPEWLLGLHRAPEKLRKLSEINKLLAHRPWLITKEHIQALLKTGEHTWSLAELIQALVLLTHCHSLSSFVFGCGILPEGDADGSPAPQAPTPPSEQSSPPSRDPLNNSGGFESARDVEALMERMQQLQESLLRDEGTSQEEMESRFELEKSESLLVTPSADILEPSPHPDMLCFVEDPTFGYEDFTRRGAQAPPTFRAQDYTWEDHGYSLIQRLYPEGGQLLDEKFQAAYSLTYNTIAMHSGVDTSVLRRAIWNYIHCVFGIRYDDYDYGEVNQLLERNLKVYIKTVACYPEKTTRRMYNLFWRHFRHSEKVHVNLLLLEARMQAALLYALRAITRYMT
UniProt Q86TU7: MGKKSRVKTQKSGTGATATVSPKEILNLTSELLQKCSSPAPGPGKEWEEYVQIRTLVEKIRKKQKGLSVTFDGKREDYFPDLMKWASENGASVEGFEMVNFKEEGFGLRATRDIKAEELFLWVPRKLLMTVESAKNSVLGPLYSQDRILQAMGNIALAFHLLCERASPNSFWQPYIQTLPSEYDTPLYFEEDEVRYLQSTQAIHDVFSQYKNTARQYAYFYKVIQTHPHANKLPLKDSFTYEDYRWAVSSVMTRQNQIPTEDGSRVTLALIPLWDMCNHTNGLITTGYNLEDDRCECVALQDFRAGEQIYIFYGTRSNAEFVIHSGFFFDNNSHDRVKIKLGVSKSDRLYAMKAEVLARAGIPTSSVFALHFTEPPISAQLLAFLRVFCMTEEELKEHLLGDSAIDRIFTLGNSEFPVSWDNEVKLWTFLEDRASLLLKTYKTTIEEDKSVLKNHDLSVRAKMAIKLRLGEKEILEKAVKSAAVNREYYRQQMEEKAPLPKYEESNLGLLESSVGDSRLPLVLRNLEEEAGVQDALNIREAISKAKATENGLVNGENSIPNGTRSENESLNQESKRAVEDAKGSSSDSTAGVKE
UniProt Q53H47: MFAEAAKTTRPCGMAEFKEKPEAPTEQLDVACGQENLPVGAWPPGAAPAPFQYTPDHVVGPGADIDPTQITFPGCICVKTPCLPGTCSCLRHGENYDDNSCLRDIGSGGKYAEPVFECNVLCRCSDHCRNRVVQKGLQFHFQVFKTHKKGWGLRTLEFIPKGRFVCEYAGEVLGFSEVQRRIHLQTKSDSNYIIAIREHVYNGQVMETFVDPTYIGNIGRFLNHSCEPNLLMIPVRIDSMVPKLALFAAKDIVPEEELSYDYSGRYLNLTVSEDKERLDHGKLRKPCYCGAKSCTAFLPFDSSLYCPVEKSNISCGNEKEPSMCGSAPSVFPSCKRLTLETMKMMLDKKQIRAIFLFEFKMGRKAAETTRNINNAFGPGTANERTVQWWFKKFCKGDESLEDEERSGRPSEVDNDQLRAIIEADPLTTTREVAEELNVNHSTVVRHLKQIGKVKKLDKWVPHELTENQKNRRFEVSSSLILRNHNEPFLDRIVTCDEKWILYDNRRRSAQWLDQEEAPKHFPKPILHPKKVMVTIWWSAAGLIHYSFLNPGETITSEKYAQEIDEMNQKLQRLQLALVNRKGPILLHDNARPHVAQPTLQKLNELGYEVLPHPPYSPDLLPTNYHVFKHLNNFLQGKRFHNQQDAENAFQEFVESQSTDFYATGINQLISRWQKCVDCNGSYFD
UniProt Q8IXJ6: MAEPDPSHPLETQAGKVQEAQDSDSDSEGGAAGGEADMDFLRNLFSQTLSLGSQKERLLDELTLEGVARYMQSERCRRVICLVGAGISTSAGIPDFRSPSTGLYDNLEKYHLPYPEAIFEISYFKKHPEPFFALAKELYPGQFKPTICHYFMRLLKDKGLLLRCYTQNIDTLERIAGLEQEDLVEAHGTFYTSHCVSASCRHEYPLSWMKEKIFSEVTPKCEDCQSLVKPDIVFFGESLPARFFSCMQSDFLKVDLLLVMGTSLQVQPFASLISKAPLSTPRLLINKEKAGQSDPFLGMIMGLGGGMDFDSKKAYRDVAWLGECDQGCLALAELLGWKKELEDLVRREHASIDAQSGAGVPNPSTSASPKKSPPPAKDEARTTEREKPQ
UniProt Q9Y3L3: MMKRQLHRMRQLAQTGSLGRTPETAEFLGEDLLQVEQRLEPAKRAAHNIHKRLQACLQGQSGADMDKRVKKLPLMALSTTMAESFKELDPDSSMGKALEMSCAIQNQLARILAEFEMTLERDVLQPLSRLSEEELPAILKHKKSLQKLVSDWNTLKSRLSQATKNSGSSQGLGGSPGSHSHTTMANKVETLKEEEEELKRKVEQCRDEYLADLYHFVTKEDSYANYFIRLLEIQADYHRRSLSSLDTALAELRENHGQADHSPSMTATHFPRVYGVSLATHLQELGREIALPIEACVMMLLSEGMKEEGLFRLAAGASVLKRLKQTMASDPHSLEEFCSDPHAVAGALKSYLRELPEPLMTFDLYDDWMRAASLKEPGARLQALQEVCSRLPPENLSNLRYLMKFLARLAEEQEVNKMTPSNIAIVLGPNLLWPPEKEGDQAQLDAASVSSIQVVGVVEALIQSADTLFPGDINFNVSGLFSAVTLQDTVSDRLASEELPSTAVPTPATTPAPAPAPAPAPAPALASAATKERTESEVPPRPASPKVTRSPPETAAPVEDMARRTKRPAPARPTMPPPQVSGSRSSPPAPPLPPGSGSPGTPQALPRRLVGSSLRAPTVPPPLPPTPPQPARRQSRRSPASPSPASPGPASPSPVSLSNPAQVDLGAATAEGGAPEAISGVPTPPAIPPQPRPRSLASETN
UniProt Q8NEM2: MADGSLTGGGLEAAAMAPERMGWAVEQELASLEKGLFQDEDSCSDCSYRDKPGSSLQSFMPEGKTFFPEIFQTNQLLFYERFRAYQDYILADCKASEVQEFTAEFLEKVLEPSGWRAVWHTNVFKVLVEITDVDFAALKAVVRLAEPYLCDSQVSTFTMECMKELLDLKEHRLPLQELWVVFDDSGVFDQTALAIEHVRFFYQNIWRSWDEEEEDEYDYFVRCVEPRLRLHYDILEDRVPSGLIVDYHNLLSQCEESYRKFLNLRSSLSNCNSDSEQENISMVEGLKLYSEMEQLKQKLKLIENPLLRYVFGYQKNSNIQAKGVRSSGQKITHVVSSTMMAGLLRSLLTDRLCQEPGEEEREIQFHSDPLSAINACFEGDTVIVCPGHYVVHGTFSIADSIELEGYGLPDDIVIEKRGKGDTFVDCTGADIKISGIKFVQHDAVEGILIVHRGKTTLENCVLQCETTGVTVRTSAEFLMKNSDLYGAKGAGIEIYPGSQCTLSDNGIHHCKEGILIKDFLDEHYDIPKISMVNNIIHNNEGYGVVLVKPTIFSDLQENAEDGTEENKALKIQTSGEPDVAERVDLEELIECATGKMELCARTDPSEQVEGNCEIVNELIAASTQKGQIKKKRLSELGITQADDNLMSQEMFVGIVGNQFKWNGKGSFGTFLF
UniProt Q7L8J4: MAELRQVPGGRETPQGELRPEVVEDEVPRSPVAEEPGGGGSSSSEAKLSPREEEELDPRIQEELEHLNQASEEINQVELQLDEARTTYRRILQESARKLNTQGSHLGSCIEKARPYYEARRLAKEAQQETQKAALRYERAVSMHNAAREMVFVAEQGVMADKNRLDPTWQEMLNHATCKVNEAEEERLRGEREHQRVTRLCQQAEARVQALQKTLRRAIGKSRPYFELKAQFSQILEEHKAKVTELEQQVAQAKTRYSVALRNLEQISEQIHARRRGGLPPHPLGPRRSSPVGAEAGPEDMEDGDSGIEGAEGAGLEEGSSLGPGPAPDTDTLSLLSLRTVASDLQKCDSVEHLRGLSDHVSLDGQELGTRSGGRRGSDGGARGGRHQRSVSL
UniProt Q13530: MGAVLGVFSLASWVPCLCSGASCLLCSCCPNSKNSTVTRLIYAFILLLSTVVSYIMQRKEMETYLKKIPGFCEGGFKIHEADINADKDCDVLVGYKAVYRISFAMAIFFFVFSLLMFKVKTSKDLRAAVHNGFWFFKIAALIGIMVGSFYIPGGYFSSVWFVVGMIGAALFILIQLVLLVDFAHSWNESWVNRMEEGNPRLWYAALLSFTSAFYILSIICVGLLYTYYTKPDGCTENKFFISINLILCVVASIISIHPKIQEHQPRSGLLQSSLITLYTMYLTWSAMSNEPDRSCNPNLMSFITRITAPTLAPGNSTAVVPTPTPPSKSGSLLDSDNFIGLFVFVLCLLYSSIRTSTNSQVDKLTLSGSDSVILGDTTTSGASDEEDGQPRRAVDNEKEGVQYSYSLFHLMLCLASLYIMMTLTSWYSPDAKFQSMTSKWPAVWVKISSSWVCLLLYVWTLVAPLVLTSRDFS
UniProt Q15393: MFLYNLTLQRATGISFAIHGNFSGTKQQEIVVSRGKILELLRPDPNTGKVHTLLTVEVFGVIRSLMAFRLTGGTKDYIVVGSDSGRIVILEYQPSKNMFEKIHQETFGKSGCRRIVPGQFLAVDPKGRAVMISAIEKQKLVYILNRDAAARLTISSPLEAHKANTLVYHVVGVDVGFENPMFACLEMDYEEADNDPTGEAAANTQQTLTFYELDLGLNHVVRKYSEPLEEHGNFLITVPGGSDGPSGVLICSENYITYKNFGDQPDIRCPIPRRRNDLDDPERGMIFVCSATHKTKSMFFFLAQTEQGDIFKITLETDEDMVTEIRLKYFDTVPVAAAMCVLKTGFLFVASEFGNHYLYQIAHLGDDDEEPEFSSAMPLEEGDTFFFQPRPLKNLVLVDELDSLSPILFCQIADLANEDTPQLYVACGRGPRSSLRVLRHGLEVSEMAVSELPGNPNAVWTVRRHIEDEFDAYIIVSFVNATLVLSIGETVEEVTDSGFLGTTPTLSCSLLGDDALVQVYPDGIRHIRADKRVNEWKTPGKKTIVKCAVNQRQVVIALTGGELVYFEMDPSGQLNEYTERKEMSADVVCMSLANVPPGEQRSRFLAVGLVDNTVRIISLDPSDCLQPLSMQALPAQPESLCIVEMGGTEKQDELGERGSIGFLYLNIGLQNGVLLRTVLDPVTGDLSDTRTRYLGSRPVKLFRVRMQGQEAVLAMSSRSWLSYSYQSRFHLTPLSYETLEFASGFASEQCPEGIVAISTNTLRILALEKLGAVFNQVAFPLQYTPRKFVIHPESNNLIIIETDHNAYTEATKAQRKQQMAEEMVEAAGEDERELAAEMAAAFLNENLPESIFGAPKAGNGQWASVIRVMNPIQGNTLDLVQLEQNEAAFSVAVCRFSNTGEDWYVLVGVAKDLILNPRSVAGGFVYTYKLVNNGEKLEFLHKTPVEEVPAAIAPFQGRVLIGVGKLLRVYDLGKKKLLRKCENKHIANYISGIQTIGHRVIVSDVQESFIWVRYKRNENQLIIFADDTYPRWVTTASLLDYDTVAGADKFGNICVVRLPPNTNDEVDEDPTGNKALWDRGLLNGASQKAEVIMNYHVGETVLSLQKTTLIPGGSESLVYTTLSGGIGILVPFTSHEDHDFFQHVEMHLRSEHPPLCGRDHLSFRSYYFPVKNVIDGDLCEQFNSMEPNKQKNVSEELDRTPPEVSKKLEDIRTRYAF
UniProt Q9NRX5: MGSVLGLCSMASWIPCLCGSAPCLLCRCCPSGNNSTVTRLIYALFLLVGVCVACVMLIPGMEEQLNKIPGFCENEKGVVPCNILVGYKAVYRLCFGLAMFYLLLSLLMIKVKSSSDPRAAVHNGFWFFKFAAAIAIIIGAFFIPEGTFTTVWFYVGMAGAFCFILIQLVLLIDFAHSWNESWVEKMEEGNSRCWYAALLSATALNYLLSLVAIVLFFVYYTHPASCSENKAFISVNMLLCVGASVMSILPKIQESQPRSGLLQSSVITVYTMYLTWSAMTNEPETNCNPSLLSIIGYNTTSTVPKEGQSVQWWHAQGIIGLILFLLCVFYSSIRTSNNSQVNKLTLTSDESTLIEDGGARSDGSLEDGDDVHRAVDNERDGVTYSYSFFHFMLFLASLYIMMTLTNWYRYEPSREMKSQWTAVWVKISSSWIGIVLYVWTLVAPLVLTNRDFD

Legend:
Assay in all cases: log2 fold change, soluble protein after heating vs DMSO (PISA); higher = thermal stabilisation; K562 cells, 10 uM, 30 min; active = over 0.2 and 3.5 SD of the protein, either way, in both replicates (recomputed)
[1] = compound: CC1=C(C=C(C=C1)NC(=O)C2=CC(=CC=C2)C(C)(C)C#N)NC3=CC4=C(C=C3)N=CN(C4=O)C
Method in brief: (§1)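 Quantification of soluble protein used TMTpro 16plex LC-MS/MS, with channel sums equalised. Samples were the supernatant after 21,000xg for 90 min of pooled aliquots from K562 cells (2×10^6 cells/mL) treated with 10 μM compound for 30 min, heated for 3 min over 48°C-58°C, and extracted in PBS with 0.5% NP-40 at 4°C. Values, from duplicates, describe thermal stability against control samples on a log2 fold-change scale.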

[2] = compound: CC1=C(C=C(C=C1)NC(=O)C2=CC(=CC=C2)N(C)C)NC(=O)C3=CC=C(C=C3)O
Method in brief: as §1

[3] = compound: CC1=CC=C(C=C1)SC2=C3C=C(SC3=CN=C2)C(=O)N
Method in brief: as §1

[4] = compound: CC1=NC(=CC=C1)C2=C(N=C(N2)C(C)(C)C)C3=CC4=NC=CN=C4C=C3
Method in brief: as §1

Nexturastat A = compound: CCCCN(Cc1ccc(C(=O)NO)cc1)C(=O)Nc1ccccc1 [Nexturastat A]
Method in brief: as §1

vemurafenib = compound: CCCS(=O)(=O)Nc1ccc(F)c(C(=O)c2c[nH]c3ncc(-c4ccc(Cl)cc4)cc23)c1F [vemurafenib]
Method in brief: as §1

[5] = compound: CCCS(=O)(=O)Nc1ccc(F)c(C(=O)c2c[nH]c3ncc(Cl)cc23)c1F
Method in brief: as §1

[6] = compound: CCCc1cc(C)[nH]c(=O)c1CNC(=O)c1cc(-c2ccnc(N3CCN(C)CC3)c2)cc2c1cnn2C(C)C
Method in brief: as §1

givinostat = compound: CCN(CC)Cc1ccc2cc(COC(=O)Nc3ccc(C(=O)NO)cc3)ccc2c1 [givinostat]
Method in brief: as §1

barasertib = compound: CCN(CCCOc1ccc2c(Nc3cc(CC(=O)Nc4cccc(F)c4)[nH]n3)ncnc2c1)CCOP(=O)(O)O [barasertib]
Method in brief: as §1

[7] = compound: CC[C@@H]1C(=O)N(C)c2cnc(Nc3ccc(C(=O)NC4CCN(C)CC4)cc3OC)nc2N1C1CCCC1
Method in brief: as §1

volasertib = compound: CC[C@@H]1C(=O)N(C)c2cnc(Nc3ccc(C(=O)N[C@H]4CC[C@H](N5CCN(CC6CC6)CC5)CC4)cc3OC)nc2N1C(C)C [volasertib]
Method in brief: as §1

[8] = compound: CC[C@H](C)N1C=C(C2=C(C=C(C=C21)C3=CN=C(C=C3)N4CCNCC4)C(=O)NCC5=C(C=C(NC5=O)C)C)C
Method in brief: as §1

epoxomicin = compound: CC[C@H](C)[C@@H](C(=O)N[C@@H]([C@@H](C)O)C(=O)N[C@@H](CC(C)C)C(=O)[C@]1(CO1)C)NC(=O)[C@H]([C@@H](C)CC)N(C)C(=O)C [epoxomicin]
Method in brief: as §1

[9] = compound: CCn1c(C(=O)N(C2CC2)C2CC2)cc2c3c(ncn3C)c(Nc3cc(C)n(C)n3)nc21
Method in brief: as §1

[10] = compound: CCn1cc(-c2ccnc3[nH]c(-c4cccc(CN(C)C)c4)cc23)c(-c2ccc(NC(=O)N(C)C)cc2)n1
Method in brief: as §1

[11] = compound: CN(C)CC(=O)Nc1ccc2[nH]c(=O)c3ccccc3c2c1
Method in brief: as §1

rosiglitazone = compound: CN(CCOC1=CC=C(C=C1)C[C@H]2C(=O)NC(=O)S2)C3=CC=CC=N3 (racemic) [rosiglitazone]
Method in brief: as §1

[12] = compound: CN1C2=C(C3=C1C(=O)N(N=C3)CC4=CC(=CC=C4)N)SC(=C2)S(=O)C
Method in brief: as §1

[13] = compound: CN1CCC(CNc2ccc3ncc(-c4cccc(OC(F)(F)F)c4)n3n2)CC1
Method in brief: as §1

Measured: log2 fold change

SIRT5 (UniProt Q9NXA8)
inactive: [1] 0.053 | [2] 0.118 | [3] -0.003 | [4] -0.134 | Nexturastat A -0.015 | vemurafenib 0 | [5] 0.028 | [6] 0.038 | givinostat 0.014 | barasertib 0.119 | [7] -0.019 | volasertib -0.083 | [8] 0.009 | epoxomicin -0.009 | [9] 0.015 | [10] -0.063 | [11] -0.06 | rosiglitazone -0.038 | [12] -0.043 | [13] 0.059

SFXN5 (UniProt Q8TD22)
inactive: [1] -0.013 | [2] 0 | [3] 0.049 | [4] 0.024 | Nexturastat A -0.026 | vemurafenib 0.135 | [5] 0.012 | [6] 0.012 | givinostat 0.124 | barasertib 0.057 | [7] 0.048 | volasertib -0.034 | [8] 0.022 | epoxomicin -0.009 | [10] -0.039 | [11] 0.006 | [12] -0.209 | [13] 0.063

SESN2 (UniProt P58004)
inactive: [1] 0.166 | [2] -0.069 | [3] -0.017 | [4] -0.031 | Nexturastat A 0.094 | vemurafenib 0.194 | [5] 0.186 | [6] 0.19 | givinostat 0.046 | barasertib 0.119 | [7] -0.244 | [8] 0.165 | epoxomicin 0.083 | [10] -0.292 | [11] 0.115 | [12] 0.015 | [13] -0.247
active: volasertib -0.522

SETD3 (UniProt Q86TU7)
inactive: [1] -0.008 | [2] 0.029 | [3] -0.01 | [4] 0.046 | Nexturastat A -0.024 | vemurafenib 0.035 | [5] -0.01 | [6] 0.034 | givinostat -0.037 | barasertib 0.026 | [7] -0.017 | volasertib -0.018 | [8] 0.055 | epoxomicin -0.024 | [10] -0.002 | [11] -0.02 | [12] -0.056 | [13] 0.06

SETMAR (UniProt Q53H47)
inactive: [1] 0.128 | [2] 0.061 | [3] -0.023 | [4] -0.049 | Nexturastat A -0.041 | vemurafenib 0.018 | [5] 0.021 | [6] 0.01 | givinostat -0.036 | barasertib 0.051 | [7] -0.071 | volasertib -0.045 | [8] 0.058 | epoxomicin 0.045 | [10] 0.015 | [11] 0.012 | [12] -0.045 | [13] 0.108

SIRT2 (UniProt Q8IXJ6)
inactive: [1] 0.014 | [2] -0.051 | [3] -0.016 | [4] 0.027 | Nexturastat A 0.004 | vemurafenib 0.012 | [5] -0.022 | [6] -0.002 | givinostat 0.004 | barasertib 0.015 | [7] 0.077 | [8] 0.043 | epoxomicin -0.015 | [10] -0.038 | [11] 0.009 | [12] -0.041 | [13] -0.025
active: volasertib 0.624

SH3BP1 (UniProt Q9Y3L3)
inactive: [1] -0.012 | [2] 0 | [3] -0.018 | [4] 0.052 | Nexturastat A -0.026 | vemurafenib -0.034 | [5] 0.004 | [6] -0.021 | givinostat 0.011 | barasertib 0.035 | [7] -0.084 | volasertib -0.142 | [8] 0.022 | epoxomicin 0.04 | [9] -0.018 | [10] 0.018 | [11] -0.003 | rosiglitazone 0.029 | [12] 0.011 | [13] -0.06

Taken from above (2 entries):
SETMAR (UniProt Q53H47)
inactive: [1] 0.128 | [2] 0.061 | [3] -0.023 | [4] -0.049 | Nexturastat A -0.041 | vemurafenib 0.018 | [5] 0.021 | [6] 0.01 | givinostat -0.036 | barasertib 0.051 | [7] -0.071 | volasertib -0.045 | [8] 0.058 | epoxomicin 0.045 | [10] 0.015 | [11] 0.012 | [12] -0.045 | [13] 0.108

SIRT2 (UniProt Q8IXJ6)
inactive: [1] 0.014 | [2] -0.051 | [3] -0.016 | [4] 0.027 | Nexturastat A 0.004 | vemurafenib 0.012 | [5] -0.022 | [6] -0.002 | givinostat 0.004 | barasertib 0.015 | [7] 0.077 | [8] 0.043 | epoxomicin -0.015 | [10] -0.038 | [11] 0.009 | [12] -0.041 | [13] -0.025
active: volasertib 0.624

(next part)

SHCBP1 (UniProt Q8NEM2)
inactive: [1] 0 | [2] -0.032 | [3] 0 | [4] 0.07 | Nexturastat A 0.047 | vemurafenib 0.102 | [5] 0.027 | [6] -0.014 | givinostat 0.018 | barasertib 0.117 | [7] -0.013 | volasertib -0.052 | [8] 0.102 | epoxomicin -0.008 | [10] 0.117 | [11] 0.111 | [12] 0.056 | [13] -0.139

SH3BP5L (UniProt Q7L8J4)
inactive: [1] 0.009 | [2] 0.119 | [3] 0.07 | [4] 0.057 | Nexturastat A 0.06 | vemurafenib 0.023 | [5] 0.051 | [6] -0.004 | givinostat 0.025 | barasertib 0 | [7] -0.02 | volasertib -0.039 | [8] -0.036 | epoxomicin 0.008 | [9] -0.088 | [10] 0.123 | [11] 0.056 | rosiglitazone 0.08 | [12] 0.029 | [13] 0.13

SERINC3 (UniProt Q13530)
active: [6] -0.414
inactive: [1] -0.136 | [2] -0.001 | [3] 0.009 | [4] 0.054 | Nexturastat A 0.011 | vemurafenib 0.083 | [5] 0.002 | givinostat 0.064 | barasertib 0.038 | [7] 0.165 | volasertib 0.075 | [8] -0.144 | epoxomicin -0.092 | [10] -0.064 | [11] 0.043 | [12] -0.014 | [13] 0.046

SETDB1 (UniProt Q15047)
inactive: [1] 0.036 | [2] -0.084 | [3] 0.015 | [4] -0.055 | Nexturastat A 0.249 | vemurafenib 0.073 | [5] 0.012 | [6] 0.155 | givinostat 0.203 | [7] -0.05 | volasertib -0.007 | [8] -0.476 | epoxomicin 0 | [9] -0.093 | [10] -0.095 | [11] 0.043 | [12] -0.055 | [13] -0.118

SEPTIN5 (UniProt Q99719)
inactive: [1] 0.026 | [2] 0 | [3] 0.007 | [4] 0.003 | Nexturastat A -0.06 | vemurafenib -0.015 | [5] -0.015 | [6] 0.104 | givinostat -0.006 | barasertib -0.013 | [7] 0.03 | volasertib 0.047 | [8] -0.003 | epoxomicin -0.025 | [10] -0.052 | [11] -0.019 | [12] -0.09 | [13] -0.009

SERPINA7 (UniProt P05543)
inactive: [1] -0.121 | [2] 0.496 | [3] 0.067 | [4] -0.021 | Nexturastat A 0.086 | vemurafenib -0.06 | [5] -0.271 | [6] -0.349 | givinostat -0.043 | barasertib -0.127 | [7] 0.055 | volasertib 0.309 | [8] 0.044 | [10] 0.036 | [11] -0.123 | [12] 0.255 | [13] 0.279
active: epoxomicin -0.68

SHC1 isoform 6 (UniProt P29353)
inactive: [1] 0.016 | [2] -0.004 | [3] 0.031 | [4] 0.011 | Nexturastat A -0.156 | vemurafenib -0.013 | [5] 0.001 | [6] -0.005 | givinostat 0.017 | barasertib 0.006 | [7] -0.018 | volasertib -0.025 | [8] 0 | epoxomicin 0 | [9] -0.01 | [10] -0.004 | [11] 0.012 | rosiglitazone 0.036 | [12] -0.036 | [13] -0.014

SERPINI1 (UniProt Q99574)
inactive: [1] 0.07 | [2] -0.009 | [3] 0.029 | [4] 0.006 | Nexturastat A -0.173 | vemurafenib 0.021 | [5] -0.047 | [6] 0.088 | givinostat -0.061 | barasertib 0.027 | [7] 0.062 | volasertib 0.006 | [8] 0.012 | epoxomicin 0.01 | [9] -0.029 | [10] -0.109 | [11] -0.018 | rosiglitazone 0.024 | [12] 0.014 | [13] 0.113

SF3B3 (UniProt Q15393)
inactive: [1] 0.026 | [2] -0.012 | [3] 0.004 | [4] 0.025 | Nexturastat A -0.029 | vemurafenib 0.023 | [5] 0.011 | [6] -0.025 | givinostat -0.008 | barasertib -0.001 | [7] 0.02 | volasertib -0.087 | [8] 0.001 | epoxomicin 0.009 | [9] -0.019 | [10] 0.016 | [11] -0.012 | rosiglitazone -0.021 | [12] -0.022 | [13] 0.072

SERINC1 (UniProt Q9NRX5)
inactive: [1] 0.044 | [2] -0.048 | [3] 0.372 | [4] -0.021 | Nexturastat A 0.053 | vemurafenib -0.083 | [5] -0.018 | givinostat 0.05 | barasertib 0.002 | [7] 0.001 | volasertib 0.025 | [8] -0.223 | epoxomicin -0.034 | [11] -0.023 | [12] -0.194
active: [6] -0.874
